Results: the supplement of paper PMC7666118
This is one part of the list.

By UniProt entry, the sequences of proteins in these tests, tags left out. Where a name states a change or a piece, a line headed by the entry shows the natural chain unless it says otherwise.
UniProt Q9HDC9: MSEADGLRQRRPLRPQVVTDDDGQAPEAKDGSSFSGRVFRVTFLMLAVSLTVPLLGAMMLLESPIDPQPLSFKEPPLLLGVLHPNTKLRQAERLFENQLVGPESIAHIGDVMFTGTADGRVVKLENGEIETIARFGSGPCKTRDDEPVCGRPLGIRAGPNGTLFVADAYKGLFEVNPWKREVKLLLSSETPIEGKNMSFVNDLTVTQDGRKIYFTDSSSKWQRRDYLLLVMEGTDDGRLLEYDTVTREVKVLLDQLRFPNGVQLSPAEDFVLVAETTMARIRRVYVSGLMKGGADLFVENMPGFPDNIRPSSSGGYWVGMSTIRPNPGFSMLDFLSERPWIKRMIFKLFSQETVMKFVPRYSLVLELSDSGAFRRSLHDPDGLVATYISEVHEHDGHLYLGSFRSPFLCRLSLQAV
UniProt Q8IX05: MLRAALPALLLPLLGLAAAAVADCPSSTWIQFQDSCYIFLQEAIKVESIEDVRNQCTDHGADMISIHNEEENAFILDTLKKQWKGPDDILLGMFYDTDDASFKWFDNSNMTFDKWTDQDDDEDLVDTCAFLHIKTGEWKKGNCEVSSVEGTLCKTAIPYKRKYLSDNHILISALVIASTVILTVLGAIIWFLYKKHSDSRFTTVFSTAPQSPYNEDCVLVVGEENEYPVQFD
UniProt Q9BRT2: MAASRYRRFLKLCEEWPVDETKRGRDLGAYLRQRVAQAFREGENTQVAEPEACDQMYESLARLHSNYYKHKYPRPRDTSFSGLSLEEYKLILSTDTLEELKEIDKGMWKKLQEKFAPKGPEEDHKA
UniProt Q8IWD4: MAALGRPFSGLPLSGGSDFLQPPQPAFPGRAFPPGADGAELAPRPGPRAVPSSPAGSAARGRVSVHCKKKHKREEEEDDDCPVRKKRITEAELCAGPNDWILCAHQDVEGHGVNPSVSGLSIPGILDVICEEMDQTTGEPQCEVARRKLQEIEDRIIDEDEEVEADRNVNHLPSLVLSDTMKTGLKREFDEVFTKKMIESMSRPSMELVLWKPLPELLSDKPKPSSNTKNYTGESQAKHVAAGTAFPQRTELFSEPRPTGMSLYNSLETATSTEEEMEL
UniProt Q6NXR4: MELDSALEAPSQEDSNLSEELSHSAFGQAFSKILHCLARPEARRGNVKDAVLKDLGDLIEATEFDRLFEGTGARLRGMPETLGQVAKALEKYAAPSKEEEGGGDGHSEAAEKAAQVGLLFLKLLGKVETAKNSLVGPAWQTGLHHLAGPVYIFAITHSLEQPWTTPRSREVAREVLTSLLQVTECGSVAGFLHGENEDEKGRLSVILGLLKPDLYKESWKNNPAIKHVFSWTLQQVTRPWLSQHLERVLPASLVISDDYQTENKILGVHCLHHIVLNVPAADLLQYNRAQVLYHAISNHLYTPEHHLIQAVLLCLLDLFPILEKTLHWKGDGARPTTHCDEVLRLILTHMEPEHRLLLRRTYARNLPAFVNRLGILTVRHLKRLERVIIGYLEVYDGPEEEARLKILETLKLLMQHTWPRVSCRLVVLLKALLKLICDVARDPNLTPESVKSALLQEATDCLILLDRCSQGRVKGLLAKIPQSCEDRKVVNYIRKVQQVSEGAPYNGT
UniProt Q9BU61: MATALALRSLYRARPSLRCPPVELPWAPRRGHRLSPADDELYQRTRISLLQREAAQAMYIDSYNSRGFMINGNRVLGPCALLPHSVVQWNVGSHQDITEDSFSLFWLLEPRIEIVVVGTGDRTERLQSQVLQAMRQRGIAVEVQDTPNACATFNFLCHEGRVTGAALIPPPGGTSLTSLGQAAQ
UniProt Q8N9R8: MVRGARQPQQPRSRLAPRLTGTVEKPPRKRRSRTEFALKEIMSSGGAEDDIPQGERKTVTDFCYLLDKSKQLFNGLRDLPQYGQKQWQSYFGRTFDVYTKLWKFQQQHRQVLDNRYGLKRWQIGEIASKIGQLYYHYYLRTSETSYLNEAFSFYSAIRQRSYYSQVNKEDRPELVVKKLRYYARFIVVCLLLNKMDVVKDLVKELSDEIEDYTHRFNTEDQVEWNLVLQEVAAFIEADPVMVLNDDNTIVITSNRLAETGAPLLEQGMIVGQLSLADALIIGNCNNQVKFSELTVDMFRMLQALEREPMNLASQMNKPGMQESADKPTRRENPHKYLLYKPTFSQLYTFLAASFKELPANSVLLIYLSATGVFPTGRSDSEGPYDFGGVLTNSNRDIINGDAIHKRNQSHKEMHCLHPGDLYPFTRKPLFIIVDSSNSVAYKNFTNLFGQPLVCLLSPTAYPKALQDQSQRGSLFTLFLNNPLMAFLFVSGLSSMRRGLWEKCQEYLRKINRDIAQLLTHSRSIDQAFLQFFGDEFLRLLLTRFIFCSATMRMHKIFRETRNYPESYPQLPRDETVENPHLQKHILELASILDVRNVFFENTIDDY
UniProt Q13137: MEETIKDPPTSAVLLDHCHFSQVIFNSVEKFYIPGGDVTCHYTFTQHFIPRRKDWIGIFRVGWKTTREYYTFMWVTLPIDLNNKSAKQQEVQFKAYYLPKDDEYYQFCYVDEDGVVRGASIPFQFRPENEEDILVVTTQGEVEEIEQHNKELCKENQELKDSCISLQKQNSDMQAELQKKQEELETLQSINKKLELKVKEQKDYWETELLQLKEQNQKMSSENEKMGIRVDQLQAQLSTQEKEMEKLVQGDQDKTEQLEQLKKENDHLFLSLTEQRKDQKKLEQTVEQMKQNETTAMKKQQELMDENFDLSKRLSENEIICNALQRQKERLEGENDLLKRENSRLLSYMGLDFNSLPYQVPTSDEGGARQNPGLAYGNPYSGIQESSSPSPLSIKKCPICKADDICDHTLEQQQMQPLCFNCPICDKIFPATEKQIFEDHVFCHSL
UniProt P16070: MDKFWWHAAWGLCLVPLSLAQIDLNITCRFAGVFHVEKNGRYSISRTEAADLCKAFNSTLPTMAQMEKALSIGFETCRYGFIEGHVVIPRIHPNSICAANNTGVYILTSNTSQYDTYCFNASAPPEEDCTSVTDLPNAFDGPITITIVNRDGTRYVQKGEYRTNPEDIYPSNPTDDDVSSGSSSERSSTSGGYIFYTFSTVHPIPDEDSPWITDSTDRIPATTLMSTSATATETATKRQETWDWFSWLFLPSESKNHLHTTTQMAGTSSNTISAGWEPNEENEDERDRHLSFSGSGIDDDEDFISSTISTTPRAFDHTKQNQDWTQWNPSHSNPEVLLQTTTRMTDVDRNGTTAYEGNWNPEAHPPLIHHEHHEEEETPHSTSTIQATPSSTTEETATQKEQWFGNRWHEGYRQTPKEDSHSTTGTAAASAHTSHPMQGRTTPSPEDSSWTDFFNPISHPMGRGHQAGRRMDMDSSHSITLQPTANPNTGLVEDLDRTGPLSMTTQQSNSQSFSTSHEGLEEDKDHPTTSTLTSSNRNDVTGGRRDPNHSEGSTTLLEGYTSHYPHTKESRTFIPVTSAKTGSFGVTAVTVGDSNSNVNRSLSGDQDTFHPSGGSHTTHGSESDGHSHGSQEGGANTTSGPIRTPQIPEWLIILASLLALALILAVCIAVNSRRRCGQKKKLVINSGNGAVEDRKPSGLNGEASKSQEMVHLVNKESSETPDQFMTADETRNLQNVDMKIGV
UniProt P11049: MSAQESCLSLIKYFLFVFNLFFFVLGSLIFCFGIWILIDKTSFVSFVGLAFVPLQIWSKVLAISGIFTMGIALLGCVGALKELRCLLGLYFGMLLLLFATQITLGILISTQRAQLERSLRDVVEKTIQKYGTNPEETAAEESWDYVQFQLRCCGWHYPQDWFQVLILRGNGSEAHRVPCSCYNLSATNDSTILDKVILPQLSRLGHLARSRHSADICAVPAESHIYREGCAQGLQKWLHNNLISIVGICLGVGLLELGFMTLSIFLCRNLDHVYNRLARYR
UniProt Q9Y3Y2: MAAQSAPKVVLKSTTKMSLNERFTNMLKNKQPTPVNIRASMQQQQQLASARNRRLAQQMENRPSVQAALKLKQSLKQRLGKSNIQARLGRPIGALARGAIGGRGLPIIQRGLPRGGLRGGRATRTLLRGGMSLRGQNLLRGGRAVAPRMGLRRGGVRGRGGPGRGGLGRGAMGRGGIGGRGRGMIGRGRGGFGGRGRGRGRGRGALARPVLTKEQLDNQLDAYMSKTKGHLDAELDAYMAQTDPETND
UniProt Q5JTJ3: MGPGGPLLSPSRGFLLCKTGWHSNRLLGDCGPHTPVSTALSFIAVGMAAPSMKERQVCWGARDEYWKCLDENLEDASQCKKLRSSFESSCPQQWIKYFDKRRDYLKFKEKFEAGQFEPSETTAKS
UniProt Q9BQP7: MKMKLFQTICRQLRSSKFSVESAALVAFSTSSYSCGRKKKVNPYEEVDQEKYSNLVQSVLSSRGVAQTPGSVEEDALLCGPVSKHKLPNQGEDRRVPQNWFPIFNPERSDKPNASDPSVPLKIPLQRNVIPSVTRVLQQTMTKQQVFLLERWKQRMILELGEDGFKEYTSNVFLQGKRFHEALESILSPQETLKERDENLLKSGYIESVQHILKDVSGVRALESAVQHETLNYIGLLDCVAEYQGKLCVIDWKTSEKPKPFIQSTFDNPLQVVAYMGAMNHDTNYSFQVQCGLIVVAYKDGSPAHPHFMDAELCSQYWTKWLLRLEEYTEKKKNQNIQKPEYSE
UniProt Q6PK04: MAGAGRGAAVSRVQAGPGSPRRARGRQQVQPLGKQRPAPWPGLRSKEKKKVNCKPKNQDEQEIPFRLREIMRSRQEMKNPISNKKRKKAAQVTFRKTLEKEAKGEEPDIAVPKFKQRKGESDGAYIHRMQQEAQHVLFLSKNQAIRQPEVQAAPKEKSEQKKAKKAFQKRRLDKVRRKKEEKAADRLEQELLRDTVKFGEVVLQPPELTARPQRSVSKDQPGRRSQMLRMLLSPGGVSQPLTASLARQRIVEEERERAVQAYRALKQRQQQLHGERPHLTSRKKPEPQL
UniProt Q96GE9: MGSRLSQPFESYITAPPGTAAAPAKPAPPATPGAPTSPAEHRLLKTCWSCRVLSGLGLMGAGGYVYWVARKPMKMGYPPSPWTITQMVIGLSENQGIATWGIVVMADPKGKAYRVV
UniProt O95568: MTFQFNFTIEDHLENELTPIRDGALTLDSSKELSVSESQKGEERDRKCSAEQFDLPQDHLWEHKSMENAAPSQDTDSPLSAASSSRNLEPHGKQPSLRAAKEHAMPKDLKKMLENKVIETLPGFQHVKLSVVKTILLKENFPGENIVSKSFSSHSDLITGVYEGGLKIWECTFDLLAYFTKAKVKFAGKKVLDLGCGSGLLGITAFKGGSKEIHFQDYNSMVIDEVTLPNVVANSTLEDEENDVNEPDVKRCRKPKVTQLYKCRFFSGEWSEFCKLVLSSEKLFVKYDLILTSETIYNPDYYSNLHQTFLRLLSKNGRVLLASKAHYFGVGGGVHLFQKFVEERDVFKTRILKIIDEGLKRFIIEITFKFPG
UniProt Q96CT7: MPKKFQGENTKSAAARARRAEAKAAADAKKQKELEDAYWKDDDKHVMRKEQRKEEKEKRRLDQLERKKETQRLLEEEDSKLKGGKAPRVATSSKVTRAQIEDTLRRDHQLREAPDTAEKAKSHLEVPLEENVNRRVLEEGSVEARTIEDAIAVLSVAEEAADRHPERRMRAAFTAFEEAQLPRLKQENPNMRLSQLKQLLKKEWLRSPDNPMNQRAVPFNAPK
UniProt Q9NRY2: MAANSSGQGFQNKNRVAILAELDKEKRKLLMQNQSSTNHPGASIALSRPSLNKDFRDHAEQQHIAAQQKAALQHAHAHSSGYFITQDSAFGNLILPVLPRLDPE
UniProt Q6NW34: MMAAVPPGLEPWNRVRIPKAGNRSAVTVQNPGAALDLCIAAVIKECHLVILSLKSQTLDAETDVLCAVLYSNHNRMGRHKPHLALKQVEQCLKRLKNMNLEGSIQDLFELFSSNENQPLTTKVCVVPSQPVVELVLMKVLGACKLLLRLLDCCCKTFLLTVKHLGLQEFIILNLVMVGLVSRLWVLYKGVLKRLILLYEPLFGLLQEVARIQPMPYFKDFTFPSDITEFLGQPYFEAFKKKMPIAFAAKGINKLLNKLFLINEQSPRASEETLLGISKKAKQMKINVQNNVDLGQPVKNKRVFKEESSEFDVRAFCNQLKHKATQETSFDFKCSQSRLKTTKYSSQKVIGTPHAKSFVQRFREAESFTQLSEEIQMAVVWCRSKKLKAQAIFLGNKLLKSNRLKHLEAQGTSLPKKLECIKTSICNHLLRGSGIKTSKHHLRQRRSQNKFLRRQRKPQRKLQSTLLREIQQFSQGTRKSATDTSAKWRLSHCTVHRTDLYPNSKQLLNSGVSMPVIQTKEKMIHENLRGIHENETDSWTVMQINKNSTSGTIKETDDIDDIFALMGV
UniProt Q9NZ63: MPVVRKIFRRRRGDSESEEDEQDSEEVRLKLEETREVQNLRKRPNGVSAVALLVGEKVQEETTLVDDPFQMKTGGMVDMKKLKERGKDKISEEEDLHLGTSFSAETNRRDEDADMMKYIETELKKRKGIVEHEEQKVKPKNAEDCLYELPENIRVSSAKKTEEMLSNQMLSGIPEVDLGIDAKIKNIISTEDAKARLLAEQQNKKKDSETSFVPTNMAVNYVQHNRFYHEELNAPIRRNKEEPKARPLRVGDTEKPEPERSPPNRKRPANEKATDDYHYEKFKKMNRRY

These targets were tested with COc1ccc(Cn2ccc3cc(C)c(C(=O)NO)cc32)cc1 (assay: dose-dependent thermal stabilisation call (2D-TPP, DLPTP, 10% FDR) (binary (1 = stabilised)); higher = stabilised by the compound). Conditions: system: HL-60 intact cells; concentration range 0.04-10 µM.
Procedure: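 2D thermal proteome profiling in intact HL-60 cells treated with BRD-3811 (0, 0.04, 0.29, 2, 10 uM) for 90 min at 37 C, then heated 3 min at one of 12 temperatures (42-63.9 C). Soluble protein was quantified by TMT10 MS. The value is the DLPTP call of the paper: dose-dependent thermal stabilisation over all temperatures at 10% FDR (F-test of a dose-response against a flat model); one experiment, one call per tested protein.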

| Target | dose-dependent thermal stabilisation call |
| --- | --- |
| CC2D1A (UniProt Q6P1N0) | inactive: 0 |
| C20ORF3 (UniProt Q9HDC9) | inactive: 0 |
| CANT1 (UniProt Q8WVQ1) | inactive: 0 |
| CD302 (UniProt Q8IX05) | inactive: 0 |
| C6ORF125 (UniProt Q9BRT2) | inactive: 0 |
| C8ORF76 (UniProt Q96K31) | inactive: 0 |
| CCDC117 (UniProt Q8IWD4) | inactive: 0 |
| C8ORF41 (UniProt Q6NXR4) | inactive: 0 |
| C3ORF60 (UniProt Q9BU61) | inactive: 0 |
| C9ORF126 (UniProt Q8N9R8) | inactive: 0 |
| CALCOCO2 (UniProt Q13137) | inactive: 0 |
| CD44 (UniProt P16070) | inactive: 0 |
| CD37 (UniProt P11049) | inactive: 0 |
| CAPZA1 (UniProt P52907) | inactive: 0 |
| C1ORF77 (UniProt Q9Y3Y2) | inactive: 0 |
| CCDC52 (UniProt Q8N0Z3) | inactive: 0 |
| C7ORF44 (UniProt Q9GZY4) | inactive: 0 |
| C1ORF31 (UniProt Q5JTJ3) | inactive: 0 |

| Target | dose-dependent thermal stabilisation call |
| --- | --- |
| C20ORF72 (UniProt Q9BQP7) | inactive: 0 |
| C9ORF91 (UniProt Q5VZI3) | inactive: 0 |
| C6ORF72 (UniProt Q9NU53) | inactive: 0 |
| CCDC137 (UniProt Q6PK04) | inactive: 0 |
| C9ORF123 (UniProt Q96GE9) | inactive: 0 |
| C5ORF33 (UniProt Q4G0N4) | inactive: 0 |
| C1ORF156 (UniProt O95568) | inactive: 0 |
| C20ORF27 (UniProt Q9GZN8) | inactive: 0 |
| CCDC124 (UniProt Q96CT7) | inactive: 0 |
| CCDC61 (UniProt Q9Y6R9) | inactive: 0 |
| C9ORF80 (UniProt Q9NRY2) | inactive: 0 |
| C4ORF15 (UniProt Q68CZ6) | inactive: 0 |
| CCDC53 (UniProt Q9Y3C0) | inactive: 0 |
| C2ORF68 (UniProt Q2NKX9) | inactive: 0 |
| C2ORF76 (UniProt Q3KRA6) | inactive: 0 |
| C3ORF17 (UniProt Q6NW34) | inactive: 0 |
| C9ORF114 (UniProt Q5T280) | inactive: 0 |
| C9ORF78 (UniProt Q9NZ63) | inactive: 0 |

Look-ups from the entries so far.
dose-dependent thermal stabilisation call with C1ORF156 (UniProt O95568) is entered as inactive: 0
dose-dependent thermal stabilisation call with C3ORF60 (UniProt Q9BU61) is entered as inactive: 0
